Results as given in PubChem BioAssay AID1487 (National Center for Advancing Translational Sciences (NCATS), 2009).
This is one part of the list. Further columns of the screen follow, without active or inactive calls. The list favours compounds with an active or inconclusive main result. The note in brackets gives the kind of curve behind each potency; many fits are weak.

Experiment: qHTS Assay for Modulators of Lamin A Splicing
Details: HeLa LMNA splicing GFP/RFP minigene ratio, 48 h
In short: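 S3 HeLa stable clones carrying a lamin A-EGFP splicing minigene plus DsRed2 were seeded at 600 cells/well in Opti-MEM with 2% FBS, pin-dosed and incubated 48 h at 37°C. Acumen cytometry (488 nm) gave the GFP/RFP total-intensity ratio.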

[1] = measured here: GFP splicing reporter channel
[2] = measured here: RFP viability control channel

Q: For `Cc1nnsc1C(=O)NNc1ccc(Cl)cc1`, which AC50 [1] is on record?
A: 11.2 µM [rising, partial curve]

Q: What about the AC50 [2] of the same compound?
A: 12.6 µM [rising, partial curve]

Q: For `Cn1cc(-c2nc3cnc(N4CCNCC4)nc3n(Cc3ccc(F)cc3)c2=O)c2ccccc21`, which AC50 [1] is on record?
A: 35.5 µM [falling, single point]

Q: And the AC50 [2]?
A: 35.5 µM [falling, single point]

Q: For `O=C(COC(=O)c1cccc(S(=O)(=O)N2CCOCC2)c1)Nc1ccc2c(c1)OCO2`, which AC50 [2] is on record?
A: 0.0447 µM [falling, full curve, poor fit]

Q: Which AC50 [1] does the source give for `O=C(Nc1ccc2c(c1)OCO2)C1CCCCN1S(=O)(=O)c1ccc(F)cc1` (configuration not stated) here?
A: 8.91 µM [rising, partial curve]

Q: And the AC50 [2]?
A: 10 µM [rising, partial curve]

Q: With `CC(C)c1cnc2c(c1SCc1cccc(F)c1)c(=O)n(C)c(=O)n2C` as the compound, how does the AC50 [1] read?
A: 2.82 µM [rising, full curve, poor fit]

Q: With `CCCOC(=O)CSC1=C(C#N)C(c2ccc3c(c2)OCO3)CC(=O)N1` (configuration not stated) as the compound, how does the AC50 [2] read?
A: 22.4 µM [rising, single point]

Q: Which AC50 [2] does the source give for `Cc1c(C(=O)Nc2cccc(Cl)c2)c2ccccn2c1CCc1ccncc1` here?
A: 14.1 µM [rising, single point]

Q: Which AC50 [1] does the source give for `CN1C(=S)SC(N(O)C(=O)Nc2ccc(Cl)c(Cl)c2)C1(C)C` (configuration not stated) here?
A: 28.2 µM [rising, single point]

Q: And the AC50 [2]?
A: 35.5 µM [rising, single point]

Q: For `O=C(/C=C/c1ccc2c(c1)OCO2)NCCSCc1c(Cl)cccc1Cl`, which AC50 [2] is on record?
A: 10 µM [rising, single point]

Q: Which AC50 [2] does the source give for `Cc1ccccc1-c1nc(CS(=O)(=O)CC(=O)Nc2cc(F)ccc2F)c(C)o1` here?
A: 12.6 µM [rising, partial curve]

Q: With `COc1ccc(-n2c(=O)c3ccccc3n(CC(=O)OCc3ccccc3)c2=O)cc1OC` as the compound, how does the AC50 [2] read?
A: 1.26 µM [falling, full curve, poor fit]

Q: Which AC50 [2] does the source give for `CN(C)C(=S)SCC(=O)NC(=O)NC(C)(C)C` here?
A: 0.355 µM [falling, partial curve, poor fit]

Q: Which AC50 [2] does the source give for `COc1ccc(NC(=O)Nc2ccc3oc(C)nc3c2)cc1` here?
A: 7.94 µM [falling, partial curve, poor fit]

Q: For `Cc1cc(Cl)ccc1OC(C)C(=O)NCCc1ccc2c(c1)OCCO2` (configuration not stated), which AC50 [2] is on record?
A: 31.6 µM [rising, single point]

Q: Which results are given for `Fc1cccc(-c2cc3nc4c(c(N5CCOCC5)n3n2)CCCC4)c1`?
A: AC50 [1]: 25.1 µM [rising, single point]; AC50 [2]: 35.5 µM [rising, single point]

Q: With `O=c1[nH]c(=O)n([C@H]2C[C@H](O)[C@@H](CO)O2)cc1C(F)(F)F` as the compound, how does the AC50 [1] read?
A: 3.98 µM [rising, full curve, poor fit]

Q: And the AC50 [2]?
A: 2 µM [rising, full curve]

Q: For `CCc1ccc(OCC(=O)N/N=C/c2cc([N+](=O)[O-])ccc2N2CCCCCC2)cc1`, which AC50 [2] is on record?
A: 12.6 µM [rising, single point]

Q: With `CN(C)Cc1ccccc1-c1nc(NCc2cccs2)c2ccccc2n1` as the compound, how does the AC50 [1] read?
A: 11.2 µM [falling, partial curve]

Q: For `O=C(CN1CCOCC1)Nc1c(C(=O)C2CC2)oc2ccccc12`, which AC50 [1] is on record?
A: 0.355 µM [rising, full curve, poor fit]

Q: With `Cc1ccc(Cn2ccc(-c3cnc(-c4ccccc4)s3)n2)cc1` as the compound, how does the AC50 [2] read?
A: 10 µM [rising, single point]

Q: With `COc1ccccc1CC1S/C(=N/N=C/c2ccco2)NC1=O` (configuration not stated) as the compound, how does the AC50 [2] read?
A: 1.26 µM [rising, partial curve, poor fit]

Q: With `O=C(CSc1ccc2c(c1)OCCO2)NCCc1ccc(Cl)cc1Cl` as the compound, how does the AC50 [2] read?
A: 7.08 µM [rising, partial curve, poor fit]

Q: Which results are given for `COc1ccc(CNC(=O)c2sc3nc4c(c(C(F)(F)F)c3c2N)CCC4)cc1OC`?
A: AC50 [1]: 11.2 µM [rising, partial curve, poor fit]; AC50 [2]: 10 µM [rising, partial curve]

Q: Which results are given for `CCCCNc1oc(-c2cccs2)nc1S(=O)(=O)c1ccccc1`?
A: AC50 [1]: 31.6 µM [rising, single point]; AC50 [2]: 15.8 µM [rising, single point]

Q: With `CC(C)C(=O)Nc1ccc2c3c(cccc13)CC2` as the compound, how does the AC50 [2] read?
A: 8.91 µM [rising, partial curve, poor fit]

Q: With `CC1CCN(c2oc(-c3ccc(COc4ccccc4)o3)nc2C#N)CC1` as the compound, how does the AC50 [1] read?
A: 0.158 µM [rising, full curve, poor fit]

Q: What does the source list for `O=C(NCC(c1cccs1)S(=O)(=O)c1cccs1)c1ccc(Cl)cc1` (configuration not stated)?
A: AC50 [1]: 3.16 µM [falling, full curve, poor fit]; AC50 [2]: 2.82 µM [falling, full curve]

Q: For `CCc1nc(C)cn1S(=O)(=O)c1cc(C)c(OC)c(C)c1C`, which AC50 [2] is on record?
A: 6.31 µM [rising, partial curve]
